Data on one molecule can be found in patent US20030236190A1.

This test deals with Insulin receptor prepared according to Bass et al., 1996: soluble human insulin receptor-immunoglobulin heavy chain chimera (human), P06213. Put plainly: FP competition against FITC-RP9 on sIR-Fc. Conditions: remark: other sources report otherwise.

These are yes or no findings as the source states them, for the method shown. Some entries that bind do so weakly or less than the wild type.

In the case of CWARPCGDAANFYDWFVQQAS [C1], the binding result is “binds”.
